PubChem BioAssay AID652243 – Drosophila RNAi Screening Center | 2013
Assay: 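Fly regulators of androgen-dependent reporter output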 (primary screen). Cells: Drosophila S2R+ cells. Knock-down reagent: long dsRNA against Drosophila genes. Duration: 72 h (48 h, then 24 h hormone). Challenge: synthetic androgen R1881 at 10 nM for 24 h. Detection: 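Per-well raw luminescence of the androgen-driven firefly reporter and of the Renilla control, two replicates each, without normalisation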. Reading the numbers: firefly reporter light: higher = more light from androgen-responsive reporter; Renilla control light: higher = more constitutive control signal (cell number, transfection). Rule for the call: 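Hit when the log firefly-to-Renilla ratio dropped or increased by a fixed fold versus the mean of GFP or LacZ controls across duplicate plates; lowering cut given as 1.5 and as 3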. Meaning of the calls: active = hit: reporter lowered or raised; inactive = no hit.
The deposit covers about 24,000 reagents; this is a random part of those with a known target gene and a result. In the full data, 246 (1%) got an active call. 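Plates not normalised; calls are printed but the firefly/Renilla ratio behind them is not deposited; fold cut for lowering reported inconsistently.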 The raw values are shown without normalisation. A plus sign joins genes that one reagent is predicted to hit. Not given: the amount of reagent.

Target gene	amplicon	firefly reporter light, replicate 1	firefly reporter light, replicate 2	Renilla control light, replicate 1	Renilla control light, replicate 2	outcome
Rbm13	DRSC17749	2.24e5	2.39e5	2.82e6	2.77e6	inactive
Rbm13	DRSC25416	7.45e5	1.08e6	8.39e5	9.35e5	inactive
lok	DRSC03567	7.95e5	7.21e5	1.36e6	2.05e6	inactive
lok	DRSC25866	2.56e5	4.16e5	5.61e5	7.29e5	inactive
lok	DRSC36722					inactive
CG14720	DRSC14942	1.16e5	1.36e5	1.85e6	1.29e6	inactive
CG34051	DRSC01739	5.58e5	5.54e5	2.92e6	2.49e6	inactive
CG2444	DRSC19846	2.27e5	1.82e5	3.92e6	3.47e6	inactive
Mpcp2	DRSC11226	2.00e5	1.43e5	2.59e6	2.23e6	inactive
Rgk3	DRSC04250	3.95e5	3.85e5	2.98e6	2.55e6	inactive
Rgk3	DRSC04254	2.23e5	1.96e5	1.78e6	1.88e6	inactive
Rgk3	DRSC04255	3.81e5	4.36e5	2.95e6	2.19e6	inactive
Rgk3	DRSC28131	4.37e5	4.62e5	2.03e6	1.75e6	inactive
CG8517	DRSC07205	1.25e5	1.15e5	1.45e6	1.44e6	inactive
Pgcl	DRSC18815	3.89e5	3.63e5	3.70e6	3.24e6	inactive
CG4962	DRSC10464	1.68e5	2.01e5	1.74e6	1.45e6	inactive
CAH1	DRSC29399	1.16e6	1.54e6	1.21e6	1.21e6	inactive
CG10600	DRSC02074	6.95e5	6.44e5	1.60e6	1.53e6	inactive
Cpsf73	DRSC16291	3.55e5	2.70e5	4.75e6	3.21e6	inactive
Cpsf73	DRSC28954	8.21e5	8.26e5	2.23e6	2.00e6	inactive
comm3	DRSC09993	2.33e5	3.15e5	2.03e6	2.10e6	inactive
comm3	DRSC09994	1.03e5	1.40e5	1.50e6	1.27e6	inactive
comm3	DRSC09995	3.18e5	1.58e5	2.12e6	1.28e6	inactive
Zip99C	DRSC16320	1.13e5	97013	7.98e5	5.46e5	inactive
mah	DRSC14645	2.30e5	2.07e5	3.22e6	2.44e6	inactive
mah	DRSC28300	6.57e5	8.45e5	1.57e6	1.97e6	inactive
Use1	DRSC10180	2.15e5	1.32e5	3.10e6	2.02e6	inactive
Use1	DRSC26772	3.67e5	4.03e5	5.82e5	5.86e5	inactive
CG15625	DRSC00460	1.11e5	56835	1.40e6	5.78e5	inactive
CG15625	DRSC29231	4.00e5	4.90e5	1.71e6	1.45e6	inactive
CG15625	DRSC39009	6.84e5	6.21e5	1.23e6	1.42e6	inactive
RpS28-like	DRSC38760	1.07e6	8.97e5	2.13e6	1.78e6	inactive
CG12929	DRSC06242	5.36e5	3.25e5	3.02e6	2.29e6	inactive
Fit1	DRSC08450	1.34e6	1.07e6	1.20e6	1.43e6	inactive
Fit1	DRSC24407	6.53e5	8.62e5	8.28e5	7.71e5	inactive
CG7365	DRSC10824	36227	44993	4.26e5	2.30e5	inactive
CG7365	DRSC28680	4.05e5	3.99e5	1.49e6	1.55e6	inactive
CG15330	DRSC18014	1.92e5	2.02e5	2.05e6	2.31e6	inactive
snRNA:U1:95Cc + snRNA:U1:95Cb	DRSC13641	82362	76909	1.26e5	1.84e5	inactive
His3.3B	DRSC17773	3.66e5	3.57e5	1.76e6	1.90e6	inactive
His3.3B	DRSC18673	4.17e5	4.92e5	1.14e5	1.54e5	inactive
His3.3B	DRSC28380	6.15e5	8.70e5	8.61e5	1.20e6	inactive
His3.3B	DRSC28708	6.52e5	7.82e5	1.44e6	1.50e6	inactive
SCOT	DRSC08186	9.75e5	1.09e6	1.84e6	1.43e6	inactive
SCOT	DRSC26521	3.54e5	2.98e5	4.67e5	6.34e5	inactive
CG15445	DRSC20517	77504	63571	7.21e5	6.32e5	inactive
CG14304	DRSC25016	6.63e5	1.08e6	6.86e5	7.71e5	inactive
Lerp	DRSC14750	48320	50098	1.04e6	8.61e5	inactive
Lerp	DRSC14751	2.24e5	2.07e5	2.45e6	2.58e6	inactive
Lerp	DRSC16030	2.28e5	2.06e5	2.46e6	2.68e6	inactive
Lerp	DRSC16031	1.64e5	1.73e5	1.70e6	2.45e6	inactive
CG9667	DRSC16535	57570	74244	1.77e6	2.34e6	inactive
CG9667	DRSC23667	6.09e5	6.75e5	8.66e5	9.32e5	inactive
CG14074	DRSC10079	1.65e5	1.38e5	2.03e6	2.19e6	inactive
CG14074	DRSC29481	4.65e5	4.21e5	7.99e5	7.99e5	inactive
Ir48b	DRSC06320	3.12e5	2.71e5	1.77e6	1.50e6	inactive
CG42262 (retired record)	DRSC17628	7.76e5	1.05e6	1.16e6	1.55e6	inactive
CG42262 (retired record)	DRSC17974	3.72e5	4.07e5	2.88e6	2.82e6	inactive
Dronc	DRSC11231	8.30e5	3.43e5	7.89e5	7.37e5	inactive
Sgs8	DRSC11282	3.06e5	2.20e5	3.00e6	2.84e6	inactive
Mys45A	DRSC07067	1.38e6	1.47e6	1.20e6	1.24e6	inactive
Mys45A	DRSC25852	4.05e5	3.26e5	1.02e6	8.57e5	inactive
resilin	DRSC05627	1.53e5	2.07e5	1.64e5	3.67e5	inactive
resilin	DRSC06595	1.54e5	1.55e5	2.80e6	2.80e6	inactive
Fer1HCH	DRSC16671	1.01e5	1.18e5	1.04e6	7.81e5	inactive
Fer1HCH	DRSC39138	7.68e5	7.57e5	1.66e6	1.40e6	inactive
Rap1	DRSC08686	9.20e5	6.16e5	1.38e6	1.06e6	inactive
Rap1	DRSC25388	4.65e5	4.27e5	5.28e5	5.77e5	inactive
Cdk5alpha	DRSC03290	83981	91340	7.09e5	1.07e6	inactive
Cdk5alpha	DRSC23301	5.53e5	5.49e5	6.49e5	5.63e5	inactive
Cdk5alpha	DRSC37041					inactive
Syp	DRSC13444	1.90e5	72587	1.80e5	1.91e5	inactive
Syp	DRSC15286	83156	92048	6.11e5	6.31e5	inactive
Syp	DRSC29126	9.15e5	8.26e5	7.95e5	8.13e5	inactive
